System: primary AML samples
Experiment: HLA class I ligandome analysis (W6/32 immunoaffinity purification, LC-MS/MS) of primary AML samples
Parameters: species or system human
Details: for Number of positive AMLs: AML patients (n=15); for rep. frequency: representation frequency in AML patients (n=15)

B1: SPATC1L (protein, UniProt Q9H0A9 1-340, looked up)
Speriolin-like protein: MAEGGELMSRLLSENADLKKQVRLLKENQMLRRLLSQSCQEGGGHDLLPPRAHAYPEAGSPGSGVPDFGRFTSVADTPSQLQTSSLEDLLCSHAPLSSEDDTSPGCAAPSQAPFKAFLSPPEPHSHRGTDRKLSPLLSPLQDSLVDKTLLEPREMVRPKKVCFSESSLPTGDRTRRSYYLNEIQSFAGAEKDARVVGEIAFQLDRRILAYVFPGVTRLYGFTVANIPEKIEQTSTKSLDGSVDERKLRELTQRYLALSARLEKLGYSRDVHPAFSEFLINTYGILKQRPDLRANPLHSSPAALRKLVIDVVPPKFLGDSLLLLNCLCELSKEDGKPLFAW
Number of positive AMLs (source protein (LiTAA)): 3 | rep. frequency (source protein (LiTAA)): [20.0%]

B2: TGFBRAP1 (protein, UniProt Q8WUH2 1-860, looked up)
Transforming growth …: MMSIKAFTLVSAVERELLMGDKERVNIECVECCGRDLYVGTNDCFVYHFLLEERPVPAGPATFTATKQLQRHLGFKKPVNELRAASALNRLLVLCDNSISLVNMLNLEPVPSGARIKGAATFALNENPVSGDPFCVEVCIISVKRRTIQMFLVYEDRVQIVKEVSTAEQPLAVAVDGHFLCLALTTQYIIHNYSTGVSQDLFPYCSEERPPIVKRIGRQEFLLAGPGGLGMFATVAGISQRAPVHWSENVIGAAVSFPYVIALDDEFITVHSMLDQQQKQTLPFKEGHILQDFEGRVIVATSKGVYILVPLPLEKQIQDLLASRRVEEALVLAKGARRNIPKEKFQVMYRRILQQAGFIQFAQLQFLEAKELFRSGQLDVRELISLYPFLLPTSSSFTRSHPPLHEYADLNQLTQGDQEKMAKCKRFLMSYLNEVRSTEVANGYKEDIDTALLKLYAEADHDSLLDLLVTENFCLLTDSAAWLEKHKKYFALGLLYHYNNQDAAAVQLWVNIVNGDVQDSTRSDLYEYIVDFLTYCLDEELVWAYADWVLQKSEEVGVQVFTKRPLDEQQKNSFNPDDIINCLKKYPKALVKYLEHLVIDKRLQKEEYHTHLAVLYLEEVLLQRASASGKGAEATETQAKLRRLLQKSDLYRVHFLLERLQGAGLPMESAILHGKLGEHEKALHILVHELQDFAAAEDYCLWCSEGRDPPHRQQLFHTLLAIYLHAGPTAHELAVAAVDLLNRHATEFDAAQVLQMLPDTWSVQLLCPFLMGAMRDSIHARRTMQVALGLARSENLIYTYDKMKLKGSSIQLSDKKLCQICQNPFCEPVFVRYPNGGLVHTHCAASRHTNPSSSSPGTRT
Number of positive AMLs (HLA class I ligandome, count for the HLA ligand (LiTAP) or, on protein lines, for the source protein (LiTAA)): 5 | Number of positive AMLs [rep. frequency] (representation frequency of the source protein (LiTAA) in AML patients (n=15)): [33.3%]

B3: ACCS (protein, UniProt Q96QU6 1-501, looked up)
1-aminocyclopropane-1-carboxyl …: MFTLPQKDFRAPTTCLGPTCMQDLGSSHGEDLEGECSRKLDQKLPELRGVGDPAMISSDTSYLSSRGRMIKWFWDSAEEGYRTYHMDEYDEDKNPSGIINLGTSENKLCFDLLSWRLSQRDMQRVEPSLLQYADWRGHLFLREEVAKFLSFYCKSPVPLRPENVVVLNGGASLFSALATVLCEAGEAFLIPTPYYGAITQHVCLYGNIRLAYVYLDSEVTGLDTRPFQLTVEKLEMALREAHSEGVKVKGLILISPQNPLGDVYSPEELQEYLVFAKRHRLHVIVDEVYMLSVFEKSVGYRSVLSLERLPDPQRTHVMWATSKDFGMSGLRFGTLYTENQDVATAVASLCRYHGLSGLVQYQMAQLLRDRDWINQVYLPENHARLKAAHTYVSEELRALGIPFLSRGAGFFIWVDLRKYLPKGTFEEEMLLWRRFLDNKVLLSFGKAFECKEPGWFRFVFSDQVHRLCLGMQRVQQVLAGKSQVAEDPRPSQSQEPSDQRR
Number of positive AMLs (source protein (LiTAA)): 3 | rep. frequency (source protein (LiTAA)): [20.0%]

B4: CCDC115 (protein, UniProt Q96NT0 1-180, looked up)
Vacuolar ATPase assembly …: MAALDLRAELDSLVLQLLGDLEELEGKRTVLNARVEEGWLSLAKARYAMGAKSVGPLQYASHMEPQVCLHASEAQEGLQKFKVVRAGVHAPEEVGPREAGLRRRKGPTKTPEPESSEAPQDPLNWFGILVPHSLRQAQASFRDGLQLAADIASLQNRIDWGRSQLRGLQEKLKQLEPGAA
Number of positive AMLs (source protein (LiTAA)): 3 | rep. frequency (source protein (LiTAA)): [20.0%]

B5: ACBD6 (protein, UniProt Q9BR61 1-282, looked up)
Acyl-CoA-binding …: MASSFLPAGAITGDSGGELSSGDDSGEVEFPHSPEIEETSCLAELFEKAAAHLQGLIQVASREQLLYLYARYKQVKVGNCNTPKPSFFDFEGKQKWEAWKALGDSSPSQAMQEYIAVVKKLDPGWNPQIPEKKGKEANTGFGGPVISSLYHEETIREEDKNIFDYCRENNIDHITKAIKSKNVDVNVKDEEGRALLHWACDRGHKELVTVLLQHRADINCQDNEGQTALHYASACEFLDIVELLLQSGADPTLRDQDGCLPEEVTGCKTVSLVLQRHTTGKA
Number of positive AMLs (source protein (LiTAA)): 3 | rep. frequency (source protein (LiTAA)): [20.0%]

B6: NUP85 (protein, UniProt Q9BW27 1-656, looked up)
Nuclear pore complex protein …: MEELDGEPTVTLIPGVNSKKNQMYFDWGPGEMLVCETSFNKKEKSEMVPSCPFIYIIRKDVDVYSQILRKLFNESHGIFLGLQRIDEELTGKSRKSQLVRVSKNYRSVIRACMEEMHQVAIAAKDPANGRQFSSQVSILSAMELIWNLCEILFIEVAPAGPLLLHLLDWVRLHVCEVDSLSADVLGSENPSKHDSFWNLVTILVLQGRLDEARQMLSKEADASPASAGICRIMGDLMRTMPILSPGNTQTLTELELKWQHWHEECERYLQDSTFATSPHLESLLKIMLGDEAALLEQKELLSNWYHFLVTRLLYSNPTVKPIDLHYYAQSSLDLFLGGESSPEPLDNILLAAFEFDIHQVIKECSIALSNWWFVAHLTDLLDHCKLLQSHNLYFGSNMREFLLLEYASGLFAHPSLWQLGVDYFDYCPELGRVSLELHIERIPLNTEQKALKVLRICEQRQMTEQVRSICKILAMKAVRNNRLGSALSWSIRAKDAAFATLVSDRFLRDYCERGCFSDLDLIDNLGPAMMLSDRLTFLGKYREFHRMYGEKRFADAASLLLSLMTSRIAPRSFWMTLLTDALPLLEQKQVIFSAEQTYELMRCLEDLTSRRPVHGESDTEQLQDDDIETTKVEMLRLSLARNLARAIIREGSLEGS
Number of positive AMLs (source protein (LiTAA)): 3 | rep. frequency (source protein (LiTAA)): [20.0%]

B7: EDEM2 (protein, UniProt Q9BV94 22-578, looked up)
ER degradation-enhancing …: APGPDGSAPDPAHYRERVKAMFYHAYDSYLENAFPFDELRPLTCDGHDTWGSFSLTLIDALDTLLILGNVSEFQRVVEVLQDSVDFDIDVNASVFETNIRVVGGLLSAHLLSKKAGVEVEAGWPCSGPLLRMAEEAARKLLPAFQTPTGMPYGTVNLLHGVNPGETPVTCTAGIGTFIVEFATLSSLTGDPVFEDVARVALMRLWESRSDIGLVGNHIDVLTGKWVAQDAGIGAGVDSYFEYLVKGAILLQDKKLMAMFLEYNKAIRNYTRFDDWYLWVQMYKGTVSMPVFQSLEAYWPGLQSLIGDIDNAMRTFLNYYTVWKQFGGLPEFYNIPQGYTVEKREGYPLRPELIESAMYLYRATGDPTLLELGRDAVESIEKISKVECGFATIKDLRDHKLDNRMESFFLAETVKYLYLLFDPTNFIHNNGSTFDAVITPYGECILGAGGYIFNTEAHPIDPAALHCCQRLKEEQWEVEDLMREFYSLKRSRSKFQKNTVSSGPWEPPARPGTLFSPENHDQARERKPAKQKVPLLSCPSQPFTSKLALLGQVFLDSS
Number of positive AMLs (source protein (LiTAA)): 3 | rep. frequency (source protein (LiTAA)): [20.0%]

B8: SIKE1 (protein, UniProt Q9BRV8 1-207, looked up)
Suppressor of IKBKE 1: MSCTIEKILTDAKTLLERLREHDAAAESLVDQSAALHRRVAAMREAGTALPDQYQEDASDMKDMSKYKPHILLSQENTQIRDLQQENRELWISLEEHQDALELIMSKYRKQMLQLMVAKKAVDAEPVLKAHQSHSAEIESQIDRICEMGEVMRKAVQVDDDQFCKIQEKLAQLELENKELRELLSISSESLQARKENSMDTASQAIK
Number of positive AMLs (source protein (LiTAA)): 3 | rep. frequency (source protein (LiTAA)): [20.0%]
